Data on 6 molecules can be found in paper PMC4161446.

To fix the notation:
T1: Csl4-TAP (S. cerevisiae) (UniProt P53859)
T1 sequence: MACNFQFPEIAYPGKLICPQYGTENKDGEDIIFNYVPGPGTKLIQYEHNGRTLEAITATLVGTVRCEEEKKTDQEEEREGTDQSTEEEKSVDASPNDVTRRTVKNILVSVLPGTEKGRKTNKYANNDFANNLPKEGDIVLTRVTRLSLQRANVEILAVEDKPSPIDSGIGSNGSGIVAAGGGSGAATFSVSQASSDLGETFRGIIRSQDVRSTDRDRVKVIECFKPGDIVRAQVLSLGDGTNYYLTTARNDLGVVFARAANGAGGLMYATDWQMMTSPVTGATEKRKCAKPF

B1: Rrp44 (protein, UniProt Q08162 1-1001)
chain: MSVPAIAPRRKRLADGLSVTQKVFVRSRNGGATKIVREHYLRSDIPCLSRSCTKCPQIVVPDAQNELPKFILSDSPLELSAPIGKHYVVLDTNVVLQAIDLLENPNCFFDVIVPQIVLDEVRNKSYPVYTRLRTLCRDSDDHKRFIVFHNEFSEHTFVERLPNETINDRNDRAIRKTCQWYSEHLKPYDINVVLVTNDRLNREAATKEVESNIITKSLVQYIELLPNADDIRDSIPQMDSFDKDLERDTFSDFTFPEYYSTARVMGGLKNGVLYQGNIQISEYNFLEGSVSLPRFSKPVLIVGQKNLNRAFNGDQVIVELLPQSEWKAPSSIVLDSEHFDVNDNPDIEAGDDDDNNESSSNTTVISDKQRRLLAKDAMIAQRSKKIQPTAKVVYIQRRSWRQYVGQLAPSSVDPQSSSTQNVFVILMDKCLPKVRIRTRRAAELLDKRIVISIDSWPTTHKYPLGHFVRDLGTIESAQAETEALLLEHDVEYRPFSKKVLECLPAEGHDWKAPTKLDDPEAVSKDPLLTKRKDLRDKLICSIDPPGCVDIDDALHAKKLPNGNWEVGVHIADVTHFVKPGTALDAEGAARGTSVYLVDKRIDMLPMLLGTDLCSLKPYVDRFAFSVIWELDDSANIVNVNFMKSVIRSREAFSYEQAQLRIDDKTQNDELTMGMRALLKLSVKLKQKRLEAGALNLASPEVKVHMDSETSDPNEVEIKKLLATNSLVEEFMLLANISVARKIYDAFPQTAMLRRHAAPPSTNFEILNEMLNTRKNMSISLESSKALADSLDRCVDPEDPYFNTLVRIMSTRCMMAAQYFYSGAYSYPDFRHYGLAVDIYTHFTSPIRRYCDVVAHRQLAGAIGYEPLSLTHRDKNKMDMICRNINRKHRNAQFAGRASIEYYVGQVMRNNESTETGYVIKVFNNGIVVLVPKFGVEGLIRLDNLTEDPNSAAFDEVEYKLTFVPTNSDKPRDVYVFDKVEVQVRSVMDPITSKRKAELLLK
B2: Rps7A (protein, UniProt P26786 1-190)
chain: MSAPQAKILSQAPTELELQVAQAFVELENSSPELKAELRPLQFKSIREIDVAGGKKALAIFVPVPSLAGFHKVQTKLTRELEKKFQDRHVIFLAERRILPKPSRTSRQVQKRPRSRTLTAVHDKILEDLVFPTEIVGKRVRYLVGGNKIQKVLLDSKDVQQIDYKLESFQAVYNKLTGKQIVFEIPSETH
B3: Utp4 (protein, UniProt Q06679 1-776)
chain: MSSSLLSVLKEKSRSLKIRNKPVKMTSQERMIVHRCRFVDFTPATITSLAFSHKSNINKLTPSDLRLAIGRSNGNIEIWNPRNNWFQEMVIEGGKDRSIEGLCWSNVNGESLRLFSIGGSTVVTEWDLATGLPLRNYDCNSGVIWSISINDSQDKLSVGCDNGTVVLIDISGGPGVLEHDTILMRQEARVLTLAWKKDDFVIGGCSDGRIRIWSAQKNDENMGRLLHTMKVDKAKKESTLVWSVIYLPRTDQIASGDSTGSIKFWDFQFATLNQSFKAHDADVLCLTTDTDNNYVFSAGVDRKIFQFSQNTNKSQKNNRWVNSSNRLLHGNDIRAICAYQSKGADFLVSGGVEKTLVINSLTSFSNGNYRKMPTVEPYSKNVLVNKEQRLVVSWSESTVKIWTMGTDSSTEQNYKLVCKLTLKDDQNISTCSLSPDGQVLVVGRPSTTKVFHLQPVGNKLKVTKLDNDLLLRTSTKLVKFIDNSKIVICSCEDDVFIVDLESEEDEKPQEVELLEVTSTKSSIKVPYINRINHLEVDQNIAVISRGCGVVDILDLKARISKPLARLNNFITAVHINTSRKSVVVITADNKIYEFNMNLNSEAENEDSESVLTQWSKNNTDNLPKEWKTLKENCVGIFSDIENSSRLWFWGATWISRIDFDVDFPINKRRKQKKRTHEGLTITDESNFMNDEEDDEDDDIDMEISENLNVLLNQGNKIKSTDVQRNEESSGHFFFTDKYKPLLFVDLISSNELAIIERNPLTFHSKQKAFIQPKLVF
B4: Utp5 (protein, UniProt Q04177 1-643)
chain: MDSPVLQSAYDPSGQYLCYVTVALDKQRVGVQPTQRATSSGVDTVWNENFLYLEDSKLKVTCLKWVNLASSDTVAIILGMNNGEIWLYSVLANEVTYKFTTGNSYEIKDIDLMGNQLWCIDSSDAFYQFDLLQFKLLQHFRINNCVQLNKLTIVPAGDSVAQLLVASHSISLIDIEEKKVVMTFPGHVSPVSTLQVITNEFFISGAEGDRFLNVYDIHSGMTKCVLVAESDIKELSHSGQADSIAVTTEDGSLEIFVDPLVSSSTKKRGNKSKKSSKKIQIVSKDGRKVPIYNAFINKDLLNVSWLQNATMPYFKNLQWREIPNEYTVEISLNWNNKNKSADRDLHGKDLASATNYVEGNARVTSGDNFKHVDDAIKSWERELTSLEQEQAKPPQANELLTETFGDKLESSTVARISGKKTNLKGSNLKTATTTGTVTVILSQALQSNDHSLLETVLNNRDERVIRDTIFRLKPALAVILLERLAERIARQTHRQGPLNVWVKWCLIIHGGYLVSIPNLMSTLSSLHSTLKRRSDLLPRLLALDARLDCTINKFKTLNYEAGDIHSSEPVVEEDEDDVEYNEELDDAGLIEDGEESYGSEEEEEGDSDNEEEQKHTSSKQDGRLETEQSDGEEEAGYSDVEME
B5: Pwp2 (protein, UniProt P25635 1-923)
chain: MKSDFKFSNLLGTVYRQGNITFSDDGKQLLSPVGNRVSVFDLINNKSFTFEYEHRKNIAAIDLNKQGTLLISIDEDGRAILVNFKARNVLHHFNFKEKCSAVKFSPDGRLFALASGRFLQIWKTPDVNKDRQFAPFVRHRVHAGHFQDITSLTWSQDSRFILTTSKDLSAKIWSVDSEEKNLAATTFNGHRDYVMGAFFSHDQEKIYTVSKDGAVFVWEFTKRPSDDDDNESEDDDKQEEVDISKYSWRITKKHFFYANQAKVKCVTFHPATRLLAVGFTSGEFRLYDLPDFTLIQQLSMGQNPVNTVSVNQTGEWLAFGSSKLGQLLVYEWQSESYILKQQGHFDSTNSLAYSPDGSRVVTASEDGKIKVWDITSGFCLATFEEHTSSVTAVQFAKRGQVMFSSSLDGTVRAWDLIRYRNFRTFTGTERIQFNCLAVDPSGEVVCAGSLDNFDIHVWSVQTGQLLDALSGHEGPVSCLSFSQENSVLASASWDKTIRIWSIFGRSQQVEPIEVYSDVLALSMRPDGKEVAVSTLKGQISIFNIEDAKQVGNIDCRKDIISGRFNQDRFTAKNSERSKFFTTIHYSFDGMAIVAGGNNNSICLYDVPNEVLLKRFIVSRNMALNGTLEFLNSKKMTEAGSLDLIDDAGENSDLEDRIDNSLPGSQRGGDLSTRKMRPEVRVTSVQFSPTANAFAAASTEGLLIYSTNDTILFDPFDLDVDVTPHSTVEALREKQFLNALVMAFRLNEEYLINKVYEAIPIKEIPLVASNIPAIYLPRILKFIGDFAIESQHIEFNLIWIKALLSASGGYINEHKYLFSTAMRSIQRFIVRVAKEVVNTTTDNKYTYRFLVSTDGSMEDGAADDDEVLLKDDADEDNEENEENDVVMESDDEEGWIGFNGKDNKLPLSNENDSSDEEENEKELP
B6: Utp13 (protein, UniProt Q05946 1-817)
chain: MDLKTSYKGISLNPIYAGSSAVATVSENGKILATPVLDEINIIDLTPGSRKILHKISNEDEQEITALKLTPDGQYLTYVSQAQLLKIFHLKTGKVVRSMKISSPSYILDADSTSTLLAVGGTDGSIIVVDIENGYITHSFKGHGGTISSLKFYGQLNSKIWLLASGDTNGMVKVWDLVKRKCLHTLQEHTSAVRGLDIIEVPDNDEPSLNLLSGGRDDIINLWDFNMKKKCKLLKTLPVNQQVESCGFLKDGDGKRIIYTAGGDAIFQLIDSESGSVLKRTNKPIEELFIIGVLPILSNSQMFLVLSDQTLQLINVEEDLKNDEDTIQVTSSIAGNHGIIADMRYVGPELNKLALATNSPSLRIIPVPDLSGPEASLPLDVEIYEGHEDLLNSLDATEDGLWIATASKDNTAIVWRYNENSCKFDIYAKYIGHSAAVTAVGLPNIVSKGYPEFLLTASNDLTIKKWIIPKPTASMDVQIIKVSEYTRHAHEKDINALSVSPNDSIFATASYDKTCKIWNLENGELEATLANHKRGLWDVSFCQYDKLLATSSGDKTVKIWSLDTFSVMKTLEGHTNAVQRCSFINKQKQLISCGADGLIKIWDCSSGECLKTLDGHNNRLWALSTMNDGDMIVSADADGVFQFWKDCTEQEIEEEQEKAKLQVEQEQSLQNYMSKGDWTNAFLLAMTLDHPMRLFNVLKRALGESRSRQDTEEGKIEVIFNEELDQAISILNDEQLILLMKRCRDWNTNAKTHTIAQRTIRCILMHHNIAKLSEIPGMVKIVDAIIPYTQRHFTRVDNLVEQSYILDYALVEMDKLF

These are yes or no findings as the source states them, for the method shown. In cells and extracts the contact can be indirect. Here binding means that the protein was enriched with, or labelled near, the bait; the list need not be complete.

The target in this experiment is T1, Csl4-TAP (S. cerevisiae). Put plainly: affinity purification with mass spectrometry; two-step TAP purification of Csl4-TAP (IgG sepharose, TEV elution, calmodulin sepharose, EGTA elution) from lysates of mitotic (YPD) and meiotic (six hours in SPO) SK1 cells; two protocols (IP method 1: 10 mM Tris pH 7.5, 120 mM NaCl, 5 mM MgCl2, 0.1% NP-40 washes; IP method 2: TMN150, 150 mM NaCl); untagged strains as controls; electrospray mass spectrometry.
As to B1, the binding result is on record as “binds”.

B2: the binding entry is “binds weakly”.

Turning to B3, the binding entry is given as “binds weakly”.

Consider B4, for which the binding entry is “binds weakly”.

B5: the binding result is on record as “binds weakly”.

In the case of B6, the binding result was “binds weakly”.
